Results from PubChem BioAssay AID2284369 (EPA ToxCast).
The shares of active, inactive and inconclusive entries below differ from those in the screen. Rule for the calls: active = hit-call score of the fitted dose curve at least 0.9, where 1 is the maximum; inconclusive = response in the unintended direction; inactive = score below 0.9. A potency beside an inconclusive call is a rough fit, not a confirmed value.

Test system: frog Estrogen Receptor (ER1), gene 398734
Assay: ATG_frER1_EcoTox2: Attagene TRANS-FACTORIAL EcoTox-2 HepG2 Assay for frog Estrogen Receptor (ER1)
Method: ATG_EcoTox2 is a cell-based, multiplexed assay created by modifying the existing Attagene TRANS-FACTORIAL system to include a panel of nuclear receptors from some or all the following species: human (Homo sapiens), african clawed frog (Xenopus laevis), rainbow trout (Oncorhynchus mykiss), japanese medaka (Oryzias latipes), and zebrafish (Danio rerio). The ECOTOX2-FACTORIAL format uses HepG2, a human liver cell line, with measurements taken at 24 hours after chemical dosing in a 24-well plate. ATG_frER1_EcoTox2 is one of 29 assay components calculated in the ATG_EcoTox2 assay. It is designed to make measurements of mRNA induction, a form of inducible reporter, as detected with fluorescence intensity signals by Reverse transcription polymerase chain reaction (RT-PCR) and Capillary electrophoresis technology.The assay endpoint ATG_frER1_EcoTox2 was analyzed in the positive analysis fitting direction relative to DMSO as the negative control and baseline of activity. Using a type of inducible reporter, measures of mRNA for gain-of-signal activity can be used to understand the reporter gene at the transcription factor-level as they relate to the gene ER. Furthermore, this assay endpoint can be referred to as a primary readout, because this assay has produced multiple assay endpoints where this one serves a reporter gene function. […]

## [Cl][Sn]([c]1ccccc1)([c]1ccccc1)[c]1ccccc1
  AC50: inconclusive: 1390 nM
